No constants are given. Whether binding was seen depends on the method and setting. Some results given as binding are weak or reduced against the parent protein; the word gives no strength.
T1: bTrypsin
T1 sequence: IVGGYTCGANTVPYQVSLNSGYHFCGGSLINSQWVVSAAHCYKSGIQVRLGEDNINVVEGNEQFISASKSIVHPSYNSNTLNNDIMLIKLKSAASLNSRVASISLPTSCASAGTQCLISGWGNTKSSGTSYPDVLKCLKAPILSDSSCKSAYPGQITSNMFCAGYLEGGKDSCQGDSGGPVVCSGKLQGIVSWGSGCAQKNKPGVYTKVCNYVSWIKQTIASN


target: T1, bTrypsin; test: fluorogenic peptide substrate cleavage, 1 µM inhibitor

| binding | Binder |
| --- | --- |
| binds | KLK5 inhibitory peptide K50062 (peptide) GPQFGLFSKYRTPNCQQYRELGCGRQYDPVCGSDMSTYANECTLCMKIREGGHNIKIIRNGPCGG |
| binds | KLK5 inhibitory peptide K51090 (peptide) GPQFGLFSKYRTPNCDEIGKYGCGRSYDPVCGSDMSTYANECTLCMKIREGGHNIKIIRNGPCGG |
| binds | KLK5 inhibitory peptide K51034 (peptide) GPQFGLFSKYRTPNCGRYTTGGCNKEYEPVCGSDMSTYANECTLCMKIREGGHNIKIIRNGPCGG |
| binds | KLK5 inhibitory peptide K50098 (peptide) GPQFGLFSKYRTPNCTSQTLGSCSREYDPVCGSDMSTYANECTLCMKIREGGHNIKIIRNGPCGG |
